Measured values taken from PMC7859239.
Results are given in words; binding and its absence hold for the method and conditions named. In cells and extracts the contact can be indirect. A yes stands for co-enrichment or nearness to the bait. Other partners may have been found. Where a sequence is shown, tags or fusion partners need not be part of it. Values belong to the binder of their own block, whether it stands above or below them.

Molecular target: T1, S. pombe Pol I subunit AC40 with C-terminal flag-his tag (Schizosaccharomyces pombe (endogenous in S. pombe)) (UniProt O94616)
T1 sequence: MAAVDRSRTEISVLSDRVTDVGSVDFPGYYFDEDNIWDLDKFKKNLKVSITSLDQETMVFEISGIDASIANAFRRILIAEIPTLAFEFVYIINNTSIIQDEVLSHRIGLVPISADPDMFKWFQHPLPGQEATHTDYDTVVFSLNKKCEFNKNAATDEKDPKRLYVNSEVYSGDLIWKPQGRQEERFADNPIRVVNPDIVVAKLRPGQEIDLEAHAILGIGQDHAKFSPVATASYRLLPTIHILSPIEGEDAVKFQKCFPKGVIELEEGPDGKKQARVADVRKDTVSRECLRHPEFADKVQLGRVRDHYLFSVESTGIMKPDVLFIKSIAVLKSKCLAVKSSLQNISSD
Assay: affinity purification with mass spectrometry; endogenous Pol I purified from S. pombe extract by the 10xHis tag on AC40 (Ni-NTA), then MonoQ and MonoS; subunits seen as bands on Coomassie-stained SDS-PAGE; A49/A34.5 also by mass spectrometry

- binding: binds
B1: S. pombe Pol I subunit A14 (ker1 in Sp) (protein, UniProt Q9P7P1 1-147)
chain: MATECPPKMILRKSEKLDKDASSKFLNRYIQTIERFQDEKSGSESVLSQLNRVLMYLKGEEIPLISLNLPVQGPPTEELIIPPEEMLETKEEESLKHAREENDDLHLDKETKKRLKKEKKKAARREKEEARKAKADTTQGVGEKEQS

- binding: binds
B2: S. pombe Pol I subunit A135 (protein, UniProt Q9P7X8 1-1174)
chain: MSFQTLERERTFKNPPKDGTSFPDLQKAVKPHVDSFNALTNAGLLNYAVKEIGEKCAFDSITQEEGGALKFGNKISFRVDEVQIAKPMLSSRERSSINRKVYPAEARERLTTYKSRLVLKFSWSVNGGPRQSEMREVGMIPIMVRSNRCHLEGLSPAELIAHKEESEEMGGYFIVNGIEKLIRMLILPKRNHPTAIIRPSFANRGTSYSQYGLSIRCVRPDQSSLTNTLHYLNNGVTMFRFHWRKNEYLIPSMMILKALLETSDKEIFEGIVGKDLGNTFLTDRVELMLRAYKSYGLYSQTETLQYLGSKFRVVLGVAEDLTDVEVGRFLLQKVVLVHLREAKDKFRLLLFMIRKLYALVAGECCADNPDSPQHQEILLGGFLYGQILKEKIEDWLNSIRAQINLDVRRSAPGVDFSDRKYLTRVFSKINNDIGTKLQYFLSTGNLVSNTGLDLQQATGYTVVAEKLNFYRFLSHFRMVHRGAFFAELKTTTVRKLLPEAWGFMCPVHTPDGSPCGLLNHLARKCEIVTHPSDVSQIPSLLLSLGVDPPSVVGHESGWGCVQLDGKIVGWCTYKLAKHVADVLRLMKIEYAVKLRNGTATEPAKVPLDLEIGYVPPSHNGQYPGLYLFSNPARMVRPVKHISTGELDMLGPFEQVYMDIACFPKEIVPKVSTHVEYSPTNVLSIVANMTPFSDFNQSPRNMYQCQMGKQTMGTPGTALRYRTDNKLYRLQTGQTPVVRPKLHNTYGLDHYPNGTNAVVAVISYTGYDMEDAMILNKSAHERGFGYGTVYKGESFDLSQKRRRGEPVVHHFGFAPGSTPRREWLQKLDADGLPFIGIKLEDGDPIVAYYDESTGQNFIETYHGTEPGFVDEVRLLGNDVGDSECQQIHVKLRITRSPIIGDKFSSRHGQKGICSQKWPTVDMPFTESGMQPDIIINPHAFPSRMTIGMFIESLAGKAGACHGLAQDSTPFIYSEQQTAADYFGEQLVKAGYNYHGNEPMYSGITGQEMKADIYIGVVYYQRLRHMVSDKFQVRTTGPIHNLTRQPVKGRKRAGGIRFGEMERDAVIGHGTSFLMQDRLMNCSDYAQSWVCRDCGSIISIMSTISMNGVGSASEVRCRSCAKPALGLEDTSDIWQDGSGKKFVGGTNTTLIALPSVFNYLTAELTAMNIKMMLEVK
